Data published in paper PMC3931756.
These are yes or no findings as the source states them, for the method shown. In cells and extracts the contact can be indirect. Some entries that bind do so weakly or less than the wild type. Sequences can lack the tags named with a protein.

Columns and labels:
[1] = biological target: T1, Inhibitor of DNA binding 2 (ID2), 6x-myc-tagged (UniProt P41136); test: co-IP; JAR cells co-transfected with 3xFLAG-Asb4 and 6xmyc-Id2, low dose of MG-132; lysis in 50 mM Tris pH 7.5, 150 mM NaCl, 1 mM EDTA, 1 mM EGTA, 0.5% NP-40; cross-linked with 2 mM DSP 2 h at 4°C; pre-cleared with IgG and Protein A/G beads; precipitated with anti-c-myc or anti-FLAG affinity gel, blotted for FLAG or myc
T1 sequence: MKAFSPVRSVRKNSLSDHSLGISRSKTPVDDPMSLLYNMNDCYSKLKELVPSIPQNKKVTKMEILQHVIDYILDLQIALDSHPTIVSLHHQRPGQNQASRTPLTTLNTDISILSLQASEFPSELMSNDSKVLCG

[2] = biological target: T2, Ankyrin repeat, SOCS box-containing 4 (ASB4), 3xFLAG-tagged (UniProt Q9WV71); test: as above
T2 sequence: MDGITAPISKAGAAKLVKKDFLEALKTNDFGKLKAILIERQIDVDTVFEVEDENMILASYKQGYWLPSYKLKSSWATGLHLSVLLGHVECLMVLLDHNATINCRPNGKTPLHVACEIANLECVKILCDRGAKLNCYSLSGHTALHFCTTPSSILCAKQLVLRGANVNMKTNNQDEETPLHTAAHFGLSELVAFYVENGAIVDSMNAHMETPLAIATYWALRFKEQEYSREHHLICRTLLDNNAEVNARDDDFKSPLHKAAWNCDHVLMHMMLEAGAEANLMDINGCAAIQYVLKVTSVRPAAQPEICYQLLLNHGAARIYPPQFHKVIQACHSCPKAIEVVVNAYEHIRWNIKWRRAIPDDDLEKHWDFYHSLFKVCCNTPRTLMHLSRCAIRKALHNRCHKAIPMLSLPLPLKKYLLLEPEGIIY

[3] = biological target: T3, Inhibitor of DNA binding 2 (ID2), myc-tagged, transfected in 2H-11 cells (UniProt P41136); test: co-IP; 2H-11 cells stably expressing FLAG-tagged Asb4, transfected with increasing amounts of myc-tagged Id2, low dose of MG-132; lysed and pre-cleared as for JAR cells; precipitated with anti-myc agarose beads, blotted for FLAG
T3 sequence: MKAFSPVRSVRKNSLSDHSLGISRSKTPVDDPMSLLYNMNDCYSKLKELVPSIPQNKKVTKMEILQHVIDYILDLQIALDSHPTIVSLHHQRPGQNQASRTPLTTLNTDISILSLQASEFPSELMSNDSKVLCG

B1: Ankyrin repeat, SOCS box-containing 4 (ASB4), 3xFLAG-tagged (enzyme, UniProt Q9WV71 1-426)
chain: MDGITAPISKAGAAKLVKKDFLEALKTNDFGKLKAILIERQIDVDTVFEVEDENMILASYKQGYWLPSYKLKSSWATGLHLSVLLGHVECLMVLLDHNATINCRPNGKTPLHVACEIANLECVKILCDRGAKLNCYSLSGHTALHFCTTPSSILCAKQLVLRGANVNMKTNNQDEETPLHTAAHFGLSELVAFYVENGAIVDSMNAHMETPLAIATYWALRFKEQEYSREHHLICRTLLDNNAEVNARDDDFKSPLHKAAWNCDHVLMHMMLEAGAEANLMDINGCAAIQYVLKVTSVRPAAQPEICYQLLLNHGAARIYPPQFHKVIQACHSCPKAIEVVVNAYEHIRWNIKWRRAIPDDDLEKHWDFYHSLFKVCCNTPRTLMHLSRCAIRKALHNRCHKAIPMLSLPLPLKKYLLLEPEGIIY
**Q.** For B1, which binding [1] is on record?
**A.** binds

B2: Inhibitor of DNA binding 2 (ID2), 6x-myc-tagged (protein, UniProt P41136 1-134)
chain: MKAFSPVRSVRKNSLSDHSLGISRSKTPVDDPMSLLYNMNDCYSKLKELVPSIPQNKKVTKMEILQHVIDYILDLQIALDSHPTIVSLHHQRPGQNQASRTPLTTLNTDISILSLQASEFPSELMSNDSKVLCG
**Q.** With B2 as the binder, how does the binding [2] read?
**A.** binds

B3: Ankyrin repeat, SOCS box-containing 4 (ASB4), FLAG-tagged, stably expressed in 2H-11 cells (enzyme, UniProt Q9WV71 1-426)
chain: MDGITAPISKAGAAKLVKKDFLEALKTNDFGKLKAILIERQIDVDTVFEVEDENMILASYKQGYWLPSYKLKSSWATGLHLSVLLGHVECLMVLLDHNATINCRPNGKTPLHVACEIANLECVKILCDRGAKLNCYSLSGHTALHFCTTPSSILCAKQLVLRGANVNMKTNNQDEETPLHTAAHFGLSELVAFYVENGAIVDSMNAHMETPLAIATYWALRFKEQEYSREHHLICRTLLDNNAEVNARDDDFKSPLHKAAWNCDHVLMHMMLEAGAEANLMDINGCAAIQYVLKVTSVRPAAQPEICYQLLLNHGAARIYPPQFHKVIQACHSCPKAIEVVVNAYEHIRWNIKWRRAIPDDDLEKHWDFYHSLFKVCCNTPRTLMHLSRCAIRKALHNRCHKAIPMLSLPLPLKKYLLLEPEGIIY
**Q.** B3 was tested. Which binding [3] did it give?
**A.** binds
